PubChem BioAssay AID1259254 | NCATS | 2017

Test: 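Finding genes that stop cells copying their DNA twice in one cycle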 (primary screen)
Cell system: human HCT116 colorectal cancer cells
Knock-down reagent: single siRNA against human genes
Time to read-out: 3 days
Measurement: 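Nuclei stained with Hoechst and imaged; cell-cycle phase assigned by DNA content; G2 share scaled per plate, non-targeting siRNA 0%, GMNN siRNA 100%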
Direction: G2 robust z-score and G2 cells, % of GMNN control: higher = more G2 cells, more excess DNA replication
Active means: 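Active siRNAs have a G2 robust z of 5 or more median absolute deviations over the median, which in these data means about 38% or higher of GMNN control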
Here is an unselected part of about 59,000 reagents. About 1,550 of them (2.6%) were called active. 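G2 share is only a proxy for re-replication; each gene was hit by three separate siRNAs, and active genes were retested.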 Entries without a mark were called inactive. Reagents against one gene are numbered here. Further read-outs or replicates are left out here. Reagent sequences are not shown. Not stated in the record: the amount of reagent.

gene | reagent no. | G2 robust z-score | G2 cells, % of GMNN control
MTHFD1 | 1 | -1.03 | -4.28
MTHFD1 | 2 | -1.42 | -7.03
MTHFD1 | 3 | -0.301 | 0.846
SLC24A1 | 1 | 1.17 | 11.2
SLC24A1 | 2 | -1.06 | -4.46
SLC24A1 | 3 | 0.757 | 8.29
TFG | 1 | -0.37 | 0.364
TFG | 2 | -0.0204 | 2.82
TFG | 3 | -0.561 | -0.981
S1PR4 | 1 | -0.502 | -0.562
S1PR4 | 2 | 1.16 | 11.1
S1PR4 | 3 | -0.914 | -3.46
OAS2 | 1 | -0.25 | 1.21
OAS2 | 2 | -0.91 | -3.44
OAS2 | 3 | 0.391 | 5.72
PROC | 1 | -0.493 | -0.499
PROC | 2 | 0.016 | 3.08
PROC | 3 | -0.478 | -0.398
SEC61A2 | 1 | 0.99 | 9.93
SEC61A2 | 2 | -0.25 | 1.21
SEC61A2 | 3 | -0.329 | 0.65
CFAP97D1 | 1 | 3.45 | 27.2
CFAP97D1 | 2 | 0.337 | 5.34
CFAP97D1 | 3 | -0.964 | -3.82
PSPH | 1 | 0.178 | 4.22
PSPH | 2 | 1.82 | 15.8
PSPH | 3 | 0.0748 | 3.49
PLPP1 | 1 | -0.386 | 0.25
PLPP1 | 2 | -0.687 | -1.86
PLPP1 | 3 | 3.56 | 28
RINL | 1 | -0.282 | 0.984
RINL | 2 | -1.27 | -5.97
RINL | 3 | 1.15 | 11.1
ARPP19 | 1 | -1.16 | -5.17
ARPP19 | 2 | 0.284 | 4.97
ARPP19 | 3 | 0.458 | 6.19
HDHD2 | 1 | -0.38 | 0.296
HDHD2 | 2 | 0.236 | 4.63
HDHD2 | 3 | -0.706 | -2
OSGEP | 1 | -0.487 | -0.459
OSGEP | 2 | -0.156 | 1.87
OSGEP | 3 | -0.163 | 1.82
TCL1B | 1 | -0.43 | -0.0565
TCL1B | 2 | 0.642 | 7.48
TCL1B | 3 | -0.777 | -2.5
MACROH2A2 | 1 | -0.809 | -2.72
MACROH2A2 | 2 | 0.217 | 4.49
MACROH2A2 | 3 | 0.379 | 5.64
CCDC70 | 1 | 0.0736 | 3.49
CCDC70 | 2 | -0.0764 | 2.43
CCDC70 | 3 | -0.602 | -1.27
STAM | 1 | -0.033 | 2.74
STAM | 2 | 0.945 | 9.62
STAM | 3 | -0.053 | 2.59
KRT16 | 1 | 2.58 | 21.1
KRT16 | 2 | 0.225 | 4.55
KRT16 | 3 | -0.0806 | 2.4
IL9 | 1 | 0.469 | 6.27
IL9 | 2 | -0.444 | -0.155
IL9 | 3 | 0.199 | 4.37
KRT74 | 1 | -0.979 | -3.92
KRT74 | 2 | -0.448 | -0.185
KRT74 | 3 | 0.635 | 7.43
EIF5 | 1 | 1.49 | 13.5
EIF5 | 2 | 0.0445 | 3.28
EIF5 | 3 | 5.17 (active) | 39.4
PLA2G1B | 1 | -0.285 | 0.963
PLA2G1B | 2 | 0.212 | 4.46
PLA2G1B | 3 | 2.12 | 17.9
